Reference: patent US20020164716A1
These are yes or no findings as the source states them, for the method shown. Binding seen in cells or lysates may run through a third protein. Some binding calls cover weakened binding; strength is not graded here.

The chains behind the UniProt entries cited, without tags or fusion partners. Residues count along the entry.
UniProt P19438, residues 355-442: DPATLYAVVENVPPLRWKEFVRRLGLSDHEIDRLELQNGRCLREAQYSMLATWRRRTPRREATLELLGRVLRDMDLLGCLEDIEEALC

Molecular target: TNF-R1-DD expressed as a GST fusion protein (UniProt P19438)
Assay: pull-down on glutathione beads, Western blot with anti-MBP antibody

binding: binds
Substance: MBP fusion protein containing 27TU (from UniProt Q8WXG6 1002-1647)
